The record followed here is article PMC3630210.

By UniProt entry, the sequences of proteins in these tests, tags left out. Where a name states a change or a piece, a line headed by the entry shows the natural chain unless it says otherwise.
UniProt Q7MWG4: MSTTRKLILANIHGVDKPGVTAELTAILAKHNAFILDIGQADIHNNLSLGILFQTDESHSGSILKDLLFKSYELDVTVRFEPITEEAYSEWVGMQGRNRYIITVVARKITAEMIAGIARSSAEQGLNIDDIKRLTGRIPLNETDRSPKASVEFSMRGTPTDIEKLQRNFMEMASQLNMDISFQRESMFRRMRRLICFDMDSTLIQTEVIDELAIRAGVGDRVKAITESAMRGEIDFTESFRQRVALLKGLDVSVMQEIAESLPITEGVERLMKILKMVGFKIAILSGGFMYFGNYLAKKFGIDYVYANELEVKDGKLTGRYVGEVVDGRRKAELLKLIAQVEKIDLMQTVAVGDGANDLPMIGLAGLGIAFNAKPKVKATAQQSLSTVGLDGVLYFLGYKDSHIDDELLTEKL
UniProt Q04206: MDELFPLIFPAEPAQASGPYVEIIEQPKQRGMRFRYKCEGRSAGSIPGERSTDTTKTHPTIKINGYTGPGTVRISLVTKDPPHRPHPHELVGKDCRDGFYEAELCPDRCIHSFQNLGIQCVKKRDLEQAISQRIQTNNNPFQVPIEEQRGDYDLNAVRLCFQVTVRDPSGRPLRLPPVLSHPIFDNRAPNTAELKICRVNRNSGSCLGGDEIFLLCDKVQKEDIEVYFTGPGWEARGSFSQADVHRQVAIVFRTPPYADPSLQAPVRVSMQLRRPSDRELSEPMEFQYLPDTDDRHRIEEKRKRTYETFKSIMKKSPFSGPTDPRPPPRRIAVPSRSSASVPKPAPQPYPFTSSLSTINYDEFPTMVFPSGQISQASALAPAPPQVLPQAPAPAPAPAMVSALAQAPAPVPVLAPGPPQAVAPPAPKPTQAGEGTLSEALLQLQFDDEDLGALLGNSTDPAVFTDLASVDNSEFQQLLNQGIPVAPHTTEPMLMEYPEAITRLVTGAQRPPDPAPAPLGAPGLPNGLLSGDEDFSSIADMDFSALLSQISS

Assay [1] concerns the target Myc-SerB (Porphyromonas gingivalis serine phosphatase SerB, full length) (Porphyromonas gingivalis) (UniProt Q7MWG4). Kind of assay: co-IP; TIGK cells transiently transfected, stimulated with TNF-α (10 ng/ml, 5 min) or left unstimulated; cells cross-linked with 0.25 mM DSP in PBS for 5 min at room temperature; lysates immunoprecipitated with anti-c-Myc agarose; immunoblot. Background: In western blotting, separated proteins are transferred to a membrane and probed.

The target is the same in assay [2]. Kind of assay: co-IP; TIGK cells transiently expressing Myc or Myc-SerB, no cross-linking reagent; lysates immunoprecipitated with anti-Myc antibody; immunoblot.

These are yes or no findings as the source states them, for the method shown. Binding seen in cells or lysates may run through a third protein. Some binding calls cover weakened binding; strength is not graded here.

With “endogenous NF-κB p65 (from UniProt Q04206 1-551)”, the binding entry in assay [1] and in assay [2] was “binds” in each case.
As to “GFP-NF-κB p65 S536D (from UniProt Q04206 1-551)”, the binding result in assay [1] is given as “binds”.
